In PubChem BioAssay AID540256 (National Center for Advancing Translational Sciences (NCATS), 2011):
In all, about 300,000 compounds went through this assay and about 3,700 (1.2%) were called active. Inconclusive means that the source gave no clear call. Such entries were picked first, then a sample of the others. Calls come from the whole dose curve; tested in HEK293 cells. Potencies of inconclusive entries are doubtful fits and often do not repeat.
% is set by controls: 0 for no effect and ±100 for the full control effect; potency is the fitted concentration of half-maximal effect.

Experiment: qHTS for Inhibitors of binding or entry into cells for Lassa Virus; note: nearly all actives have a fitted effect of over 50% in size
Conditions: Lassa virus pseudotype entry inhibition, cell reporter; activity change, negative = inhibition: at 37.9 µM (top of the series) unless noted
For COc1ccc(C2NC(c3ccc(OC)c(OC)c3OC)C(C)C(=O)C2C)c(OC)c1OC (stereo unspecified), the Potency was inconclusive: 12.6 µM [inhibitor, single point].
For Cc1ccc(C(C)C)cc1OCCCCN1CCCC1, the Potency was inconclusive: 29.1 µM [inhibitor, single point].
In the case of O=C(Nc1cccc(C(F)(F)F)c1)C1CCCN(S(=O)(=O)c2cccc3nonc23)C1 (stereo unspecified), the “activity change, negative = inhibition” value is reported as inactive: 8.78% [at 46.1 µM].
For COc1ccc(-c2csc(NC(=O)CS(=O)(=O)c3ccccc3)n2)cc1, the Potency was inconclusive: 10 µM [inhibitor, partial curve, poor fit].
In the case of Cc1ccc(C(C(=O)NC(C)(C)C)N(Cc2cccs2)C(=O)c2csnn2)cc1 (stereo unspecified), the “activity change, negative = inhibition” value is reported as inactive: 7.04%.
With Cc1oc2ncn(CC(C)C)c(=O)c2c1C(=O)NCCCN(C)Cc1ccccc1 the Potency was inconclusive: 35.5 µM [activator, single point].
With COc1ccc(C(=O)C2CCN(CC(=O)NCc3ccccc3)CC2)cc1 the Potency was inconclusive: 28.2 µM [inhibitor, single point].
For O=c1c2ccccc2ncn1C1CCCCC1, the Potency was inconclusive: 6.51 µM [activator, single point].
In the case of Cc1c(C#N)c(NC(=O)c2ccccc2)n(Cc2ccccc2)c1C, the Potency is reported as inconclusive: 22.4 µM [inhibitor, single point].
In the case of COC(=O)c1ccc2c(c1)N(Cc1cc(C)ccc1C)C(=O)c1ccccc1S2(=O)=O, the Potency is reported as inconclusive: 6.31 µM [inhibitor, full curve, poor fit].
With COc1ccc2oc(C(=O)OCC(=O)N3CCN(c4ccccc4)CC3)c(C)c2c1 the Potency was inconclusive: 0.501 µM [inhibitor, full curve].
In the case of COc1ccc(OC)c(C(C)NC(C)=O)c1 (stereo unspecified), the Potency is reported as inconclusive: 29.1 µM [activator, partial curve, poor fit].
For CCC(C)c1ccc(NC(=S)N2CCCC2)cc1 (stereo unspecified), the Potency was inconclusive: 11.2 µM [inhibitor, partial curve, poor fit].
For COc1cccc(C2CC(c3ccc(Br)cc3)=NN2C(=O)c2ccncc2)c1OC (stereo unspecified), the Potency was inconclusive: 11.2 µM [inhibitor, partial curve, poor fit].
In the case of CC(C)Nc1nnc(SCC(=O)Nc2ccc3c(c2)C(=O)c2ccccc2C3=O)s1, the Potency is reported as inconclusive: 0.517 µM [activator, full curve, poor fit].
In the case of O=C(Cn1c(-c2ccccc2)c[n+]2ccsc12)c1ccc(Br)cc1, the “activity change, negative = inhibition” value is reported as inactive: -0.966%.
With COc1ccc(C(=O)C2CCN(C(=S)Nc3ccc(F)cc3)CC2)cc1 the Potency was inconclusive: 11.2 µM [inhibitor, partial curve, poor fit].
In the case of Cn1c(=O)[nH]c(=O)c2c1ncn2CCN1CCOCC1, the Potency is reported as inconclusive: 1.26 µM [inhibitor, single point].
In the case of CC(=O)N1CCOc2ccc(S(=O)(=O)NCC3CCC(C(=O)Nc4ccc(C)cn4)CC3)cc21 (stereo unspecified), the Potency is reported as inconclusive: 35.5 µM [inhibitor, single point].
In the case of COc1ccccc1NC(=O)c1nn(-c2ccccc2)ccc1=O, the “activity change, negative = inhibition” value is reported as inactive: 5.32%.
For COc1cc(NC(=O)c2ccc(Cl)cc2Cl)ccc1-c1cc2ccccc2oc1=O, the Potency was inconclusive: 12.6 µM [inhibitor, single point].
For CC(C)C1CC(c2ccccc2)(C(CN)CO)CCO1 (stereo unspecified), the “activity change, negative = inhibition” value was inactive: -1.22%.
In the case of COc1ccc(/C=N/N=C2/NC(=O)C(CC(=O)NC(C)C)S2)cc1 (stereo unspecified), the Potency is reported as inconclusive: 14.1 µM [inhibitor, single point].
For O=C1CN(S(=O)(=O)c2ccc(Cl)cc2)c2ccccc2N1, the Potency was inconclusive: 5.01 µM [inhibitor, full curve, poor fit].
In the case of Cc1nn(-c2ccccc2)c(C)c1/C=N/NC(=O)CSc1nnc(SCc2cccc3ccccc23)s1, the Potency is reported as inconclusive: 35.5 µM [inhibitor, single point].
With O=C(Nc1cc(C(=O)N2CCN(c3ccccc3)CC2)ccc1Cl)c1cccs1 the Potency was inconclusive: 20 µM [inhibitor, partial curve].
For Cc1nc2c(o1)C(=O)c1ccccc1C2=Nc1ccccc1, the Potency was active: 11.2 µM.
In the case of ON=C1c2cc(OCCN3CCCCC3)ccc2-c2ccc(OCCN3CCCCC3)cc21, the Potency is reported as inconclusive: 22.4 µM [inhibitor, single point].
For CCOC(=O)c1c(NC(NC(=O)CF)C(Cl)(Cl)Cl)sc2c1CCCC2 (stereo unspecified), the Potency was inconclusive: 1 µM [inhibitor, full curve, poor fit].
In the case of Cc1ccc2nc(SC(C)C(=O)N3CCCCC3)[nH]c2c1 (stereo unspecified), the Potency is reported as inconclusive: 35.5 µM [inhibitor, single point].
In the case of COc1ccc(S(=O)(=O)N2CCCCC2)cc1NCC(=O)Nc1ccc(C)cc1, the Potency is reported as inconclusive: 35.5 µM [inhibitor, partial curve, poor fit].
In the case of CC(C)CNC(=O)N1c2ccccc2Sc2ccccc21, the Potency is reported as inconclusive: 11.2 µM [inhibitor, partial curve, poor fit].
For CN1CCN(C(=S)c2ccc(Cl)cc2)CC1, the Potency was inconclusive: 0.58 µM [inhibitor, partial curve, poor fit].
In the case of CN(c1ccccc1)S(=O)(=O)c1cccc(NC(=O)Cc2ccc(Cl)cc2)c1, the Potency is reported as active: 8.91 µM.
For O=C(Nc1ccc(C(=O)OC2CCCCC2)cc1)c1ccncc1, the Potency was inconclusive: 8.91 µM [inhibitor, partial curve, poor fit].
In the case of COC(=O)/C(=C/c1cccc([N+](=O)[O-])c1)NC(=O)c1ccc(OC)cc1, the Potency is reported as inconclusive: 29.1 µM [inhibitor, partial curve, poor fit].
In the case of C=C(C)CSc1nc2sc3c(c2c(=O)n1C1CCCCC1)CCN(C)C3, the “activity change, negative = inhibition” value is reported as inactive: 4.16% [at 46.1 µM].
In the case of CCOc1ccc(CNC(=O)Nc2ccccc2)cc1, the Potency is reported as inconclusive: 35.5 µM [inhibitor, single point].
For CCCOc1c(Cl)cc(C(=O)Nc2ccc3c(c2)OCO3)cc1OCC, the Potency was inconclusive: 1 µM [inhibitor, full curve, poor fit].
For CCC(C)[C@H](NC(=O)N1CCn2c1nc1ccccc12)C(=O)NCc1ccc(OC)cc1 (stereo partly specified), the Potency was inconclusive: 10 µM [inhibitor, partial curve].
For COc1ccc(NS(=O)(=O)c2ccc(C(=O)N3CCC(C)CC3)cc2)cc1, the Potency was inconclusive: 15.8 µM [inhibitor, single point].
With Cc1cccc(NC(=O)[C@H](Cc2ccccc2)NC(=O)OCc2ccccc2)c1 the Potency was inconclusive: 6.51 µM [inhibitor, full curve].
With O=C(CSc1nnc(-c2ccncc2)o1)N1CCCCCC1 the “activity change, negative = inhibition” value was inactive: 24.5%.
With COc1cccc(CNC(=O)N2CCN(c3ccccc3C)CC2)c1 the Potency was inconclusive: 11.2 µM [inhibitor, partial curve, poor fit].
In the case of Cc1cc(C)c(NC(=O)C2CCCN(C(=O)c3cnn(-c4ccccc4)c3-n3cccc3)C2)c(C)c1 (stereo unspecified), the “activity change, negative = inhibition” value is reported as inactive: -3.09% [at 46.1 µM].
For O=C(CCS(=O)(=O)c1ccc(Cl)cc1)Nc1ccccc1Br, the “activity change, negative = inhibition” value was inactive: 17.1%.
In the case of COc1ccc(Oc2cnc3ccccc3n2)cc1, the “activity change, negative = inhibition” value is reported as inactive: -2.91%.
In the case of CCOC(=O)c1c(C)[nH]c(C)c1S(=O)(=O)N(C)CC(=O)Nc1ccc(C)c(F)c1, the “activity change, negative = inhibition” value is reported as inactive: -14.2% [at 46.1 µM].
In the case of CC(=O)Nc1ccc2nc(SCCOc3ccccc3Cl)sc2c1, the “activity change, negative = inhibition” value is reported as inactive: -12% [at 46.1 µM].
For O=C(Cn1c(=O)c2c(ncn2Cc2ccccc2)n(Cc2ccccc2)c1=O)N1CCCC1, the Potency was inconclusive: 35.5 µM [inhibitor, single point].
With COc1ccccc1N1CCN(C(=O)CCCn2nc(C)c([N+](=O)[O-])c2C)CC1 the “activity change, negative = inhibition” value was inactive: -12% [at 46.1 µM].
For Cc1ccc(S(=O)(=O)NCC(=O)N2CCN(c3ccccc3F)CC2)cc1, the Potency was inconclusive: 0.562 µM [inhibitor, single point].
With N#CC1=C(SCC(=O)c2ccc(Br)cc2)NC2=C(C(=O)CCC2)C1c1ccco1 (stereo unspecified) the Potency was inconclusive: 7.94 µM [inhibitor, partial curve, poor fit].
In the case of CCNC(=S)N/N=C(\C)c1ccc(N2CCOCC2)cc1, the Potency is reported as inconclusive: 13 µM [inhibitor, partial curve, poor fit].
For COc1cc2cc(CN(Cc3cccs3)C(=S)Nc3ccccc3)c(=O)[nH]c2cc1OC, the Potency was inconclusive: 35.5 µM [inhibitor, single point].
In the case of C=CCc1cc(/C=N/NC(=O)CSc2nnc(CCCc3ccc(OC)cc3)o2)cc(OC)c1O, the Potency is reported as inconclusive: 2.51 µM [inhibitor, full curve].
For CCOc1ccc2nc(NC(=O)CSc3ccc(Cl)cc3)sc2c1, the Potency was inconclusive: 3.66 µM [inhibitor, full curve].
For O=C1C[C@@H](c2ccc(O[C@@H]3O[C@H](CO)[C@@H](O)[C@H](O)[C@H]3O)cc2)Oc2cc(O)ccc21, the “activity change, negative = inhibition” value was inactive: 1.14%.
With O=C1Nc2ccc(F)cc2C12SCCS2 the Potency was inconclusive: 29.1 µM [inhibitor, single point].
For Cc1cccc(Nc2nc(N3CCCCC3)nc(N3CCCCC3)n2)c1, the Potency was inconclusive: 32.6 µM [inhibitor, single point].
For Fc1ccc(Oc2cnns2)cc1, the “activity change, negative = inhibition” value was inactive: -1.52% [at 46.1 µM].
In the case of CCOc1ccc2[nH]c3c(=O)n(CCC4=CCCCC4)cnc3c2c1, the Potency is reported as inconclusive: 0.562 µM [inhibitor, full curve, poor fit].
With COc1ccc(C)cc1NC(=O)c1ccc(N(C)S(C)(=O)=O)cc1 the Potency was inconclusive: 3.16 µM [activator, full curve, poor fit].
For Cc1ccccc1Nc1scc(-c2ccc(Cl)cc2)[n+]1-c1ccccc1C, the Potency was inconclusive: 18.3 µM [inhibitor, partial curve, poor fit].
In the case of Cc1cccc(C(=O)Nc2ccccc2OCc2cc(=O)n3cc(C)ccc3n2)c1, the “activity change, negative = inhibition” value is reported as inactive: 26.5% [at 46.1 µM].
For COc1ccc(C(=O)N(Cc2nc(-c3ccc(C)cc3)no2)C2CCCCC2)cc1OC, the Potency was inconclusive: 29.1 µM [inhibitor, single point].
